{"source": "patent US20140206678A1", "about": "“INHIBITORS OF MTOR KINASE AS ANTI -VIRAL AGENT” (KADMON CORPORATION, LLC, priority 2011, published 2014)", "key": {"[1]": {"system": "mTORC1 targets (4EBP1, rpS6)", "assay": "Phosphorylation of mTORC1 targets in MCMV-infected MEFs (Western blot)", "assay_type": "cell-based, mouse", "details": "48 hpi; rapamycin 20 nM, Torin1 250 nM, LY294002 20 μM"}, "HCMV": {"system": "HCMV", "assay": "HCMV yield in MRC5 fibroblasts at 96 hours post-infection (mTOR inhibitors)", "assay_type": "cell-based, human cytomegalovirus", "details": "0.5 pfu/cell, up to 5 μM"}, "eIF4F complex and 4EBP1": {"system": "eIF4F complex and 4EBP1", "assay": "m7GTP-Sepharose cap-analog binding (eIF4F complex) in HCMV-infected fibroblasts", "assay_type": "cell-based, human", "details": "rapamycin 20 nM, Torin1 250 nM", "method": "FIG. 4. Rapamycin-resistant mTOR activity is required for 4EBP1 phosphorylation and eIF4F complex integrity during HCMV infection. Serum-starved confluent human fibroblasts were infected with HCMV at a multiplicity of 3 PFU/cell. […] (A) At 48 hpi the phosphorylation status of mTORC1 targets was assessed by Western blot assay by using antibodies to phosphorylated targets (4EBP1-PT^37/46 and rpS6-PS^235/6) and total proteins. Tubulin was assayed as a loading control. (B) Same as above (A) except that cells were harvested at the indicated times. (C and D) After mock infection (M) or infection with HCMV (WT) at a multiplicity of 3 PFU/cell, cultures were harvested at the indicated times. Equivalent amounts of protein from each sample were incubated with m^7GTP-Sepharose, and the isolated protein complexes were analyzed by Western blotting using the indicated antibodies to the eIF4F complex and 4EBP1. In all cases the results are representative of at least two independent experiments. lys, lysate.\nThe phosphorylation status of 4EBP1 regulates cap-dependent protein translation. Hypophosphorylated 4EBP1 binds to eIF4E and inhibits the formation of the eIF4F complex, while the phosphorylation of 4EBP1 inhibits its interaction with eIF4E. […]"}, "MCMV": {"system": "MCMV", "assay": "MCMV replication in mouse embryo fibroblasts, TCID50", "assay_type": "cell-based, murine cytomegalovirus", "details": "4EBP1-null MEFs; rapamycin 20 nM, Torin1 250 nM; 6 days post infection"}, "HSV-1": {"system": "HSV-1", "assay": "HSV-1 replication in MEFs, TCID50", "assay_type": "cell-based, herpes simplex virus type 1", "details": "72 hpi, rapamycin 20 nM, Torin1 250 nM, 0.05 PFU/cell"}, "γHV68": {"system": "γHV68", "assay": "γHV68 replication in MEFs, TCID50", "assay_type": "cell-based, murine gammaherpesvirus 68", "details": "6 days post infection, rapamycin 20 nM, Torin1 250 nM"}, "4EBP1": {"system": "4EBP1", "assay": "4EBP1 phosphorylation in HSV-1-infected MEFs (Western blot)", "assay_type": "cell-based, mouse", "details": "8 hpi, 3 PFU/cell", "method": "FIG. 8. Rapamycin-resistant mTOR activity is required for lytic replication by representative alpha- and gamma-herpesviruses. (A) Confluent serum-starved MEFs were infected at a multiplicity of 0.05 PFU/cell with HSV-1 or γHV68. The amount of virus in cell-free supernatants was determined by the TCID50 method at 72 hpi for HSV-1 (left) and at 6 days post infection for γHV68 (right). Black bars represent vehicle-treated samples (N) (DMSO), gray bars represent rapamycin-treated samples (R) (20 nM), and white bars represent Torin1-treated samples (T) (250 nM). The error bars represent the standard errors of the means from at least two independent experiments. (B) Confluent MEF monolayers were infected with HSV-1 at a multiplicity of 3 PFU/cell. Infected cell lysates were harvested at 8 hpi, and equal amounts of protein were analyzed by Western blotting. (C) WT or 4EBP1-null MEFs were infected with HSV-1 at a multiplicity of 0.05 PFU/cell. The amount of cell-free virus present in the supernatant at 72 hpi was quantified by the TCID50 method. The error bars represent the standard errors of the means from two independent experiments."}}, "note": "At least one structure is not confirmed: it was looked up by name or label, or the drawing left a doubt."}
{"compound": "O=c1cc(N2CCOCC2)oc2c(-c3ccccc3)cccc12", "note": "[LY294002]", "values": [{"measurement": "phosphorylation of 4EBP1 in MCMV-infected MEFs", "setting": "[1]", "result": "inhibited"}, {"measurement": "phosphorylation of rpS6 in MCMV-infected MEFs", "setting": "[1]", "result": "completely inhibited"}]}
{"compound": "COc1cccc2cc(-c3nc([C@H]4CC[C@H](C(=O)O)CC4)n4ncnc(N)c34)[nH]c12", "note": "[OSI-027]", "values": [{"measurement": "HCMV virus production (yield as percentage of untreated cells)", "setting": "HCMV", "result": "inhibit virus production"}]}
{"compound": "CO[C@H]1C[C@@H]2CC[C@@H](C)[C@@](O)(O2)C(=O)C(=O)N2CCCC[C@H]2C(=O)O[C@H]([C@H](C)C[C@@H]2CC[C@@H](O)[C@H](OC)C2)CC(=O)[C@H](C)/C=C(\\C)[C@@H](O)[C@@H](OC)C(=O)[C@H](C)C[C@H](C)/C=C/C=C/C=C/1C", "note": "[rapamycin]", "values": [{"measurement": "association of 4EBP1 with m7GTP-Sepharose cap analog", "setting": "eIF4F complex and 4EBP1", "result": "did not increase"}, {"measurement": "association of eIF4G and eIF4A with the cap analog", "setting": "eIF4F complex and 4EBP1", "result": "minimal effects"}, {"measurement": "MCMV replication", "setting": "MCMV", "result": "minimal impact"}, {"measurement": "HSV-1 replication", "setting": "HSV-1", "result": "ineffective"}, {"measurement": "γHV68 replication", "setting": "γHV68", "result": "ineffective"}, {"measurement": "phosphorylation of 4EBP1 during HSV-1 infection", "setting": "4EBP1", "result": "not"}]}
